Experimental data taken from PubChem BioAssay AID2685 (National Center for Advancing Translational Sciences (NCATS), 2010).
This is one part of the list. Shown are side measurements of this screen, not its main read-out; they come without a call. Compounds called inactive in the main read-out are mostly missing here. The note in brackets gives the kind of curve behind each potency; many fits are weak.

Assay: qHTS Assay for Lipid Storage Modulators in Drosophila S3 Cells;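 as to cell number change: cells counted by Cell Tracker Red CMTPX staining in the red channel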
Conditions: BODIPY lipid droplet fluorescence, 18-24 h; for cell number change: measured here: cell count max response, cells fed with added oleic acid
In short: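 Drosophila S3 cells got compounds at several concentrations plus oleic acid (400 uM solution). Laser-scanning cytometry with 488 nm excitation read lipid droplets at 500-530 nm and cells at 575-640 nm. Percent activity was relative to 20 uM Triacsin C.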

[1] = measured here: cell number channel AC50, cells fed with added oleic acid
[2] = measured here: lipid fluorescence (Fed channel) AC50, cells fed with added oleic acid

SMILES | AC50 [1] | AC50 [2] | cell number change
CCOC(=O)/C(=N\Nc1ccccc1Cl)N1CCN(c2ccccc2OC)CC1 | 6.51 µM [rising, partial curve] | 4.61 µM [rising, partial curve] | 
Clc1ccc(COc2ccccc2-c2ccnc3ncnn23)cc1 | 29.1 µM [rising, single point] |  | 77.6%
CC(OC(=O)c1ccccc1C(=O)N(C)Cc1ccccc1)C(=O)NC1(C#N)CCCCC1 (configuration not stated) |  |  | -8.03%
C=CCn1c(SCc2csc(-c3ccc(C)cc3)n2)nnc1-c1ccccc1OC |  | 16.4 µM [falling, single point] | -16.7%
COc1ccccc1NS(=O)(=O)c1cc(NC(=O)c2cccs2)ccc1N1CCCC1 | 6.51 µM [falling, full curve, poor fit] |  | -31.6%
CN(Cc1c(C(=O)N2CCCCCCC2)nc2ccc(Cl)cn12)C1CCOC1 (configuration not stated) |  | 6.51 µM [falling, single point] | 2.31%
COc1cc(NC(=O)c2cccnc2Sc2ccc(C)c(C)c2)cc(OC)c1OC |  | 32.6 µM [rising, partial curve, poor fit] | 0.327%
CN1CCN(C(=O)CN(c2cccc(Cl)c2)S(=O)(=O)c2ccccc2)CC1 |  | 29.1 µM [falling, single point] | 21.8%
Fc1ccc(Br)cc1/C=N/N1CCN(c2ccccc2)CC1 |  | 6.51 µM [rising, single point] | -6.93%
COc1ccc(/C=C2/CCc3ccccc3C2=O)cc1CN1CCOCC1 | 32.6 µM [falling, single point] |  | -36.3%
Cc1ccccc1NC(=O)CSc1nn2c(=O)c(C)nnc2s1 | 0.00461 µM [rising, full curve, poor fit] |  | 
Cc1ccc(C(=O)N/N=C/c2ccc(-c3ccc(Br)cc3[N+](=O)[O-])o2)o1 | 29.1 µM [falling, single point] |  | -33.4%
NC(N)=NS(=O)(=O)c1ccc(NC(=S)NC(=O)/C=C/c2ccccc2)cc1 |  | 9.2 µM [rising, partial curve] | -7.62%
O=C(COCc1cc(-c2ccc3c(c2)OCO3)on1)N1CCCCC1 |  | 6.51 µM [rising, single point] | 29.7%
CCOC(=O)NN=C1c2ccccc2-c2ccccc21 |  | 29.1 µM [falling, single point] | 13.7%
COc1ccc(CC2(CO)CCN(Cc3cnn(-c4ccc(F)cc4)c3)CC2)cc1 |  | 0.0259 µM [falling, full curve, poor fit] | 3.12%
CCOC(=O)c1c(C)c(C(=O)NCCOC)c(C)n1CC | 3.66 µM [falling, single point] |  | 
CSc1nc(N)nc(SCC(=O)OC(C)C)c1C#N |  |  | -8.99%
COc1cc(/C=N/NC(=O)c2nnn(-c3nonc3N)c2C(C)C)ccc1OCc1ccc(F)cc1 |  |  | 29.5%
COc1ccccc1NC(=O)c1ccc(S(=O)(=O)N2CCCC(C)C2)cc1 (configuration not stated) | 0.116 µM [rising, full curve, poor fit] | 0.651 µM [falling, full curve, poor fit] | 
O=C(Nc1ccccc1C(=O)NCC1CCCO1)c1ccccc1 (configuration not stated) |  | 0.92 µM [rising, full curve, poor fit] | -11.4%
Cc1ccc(NC(=O)CCCCCN2C(=O)c3ccccc3C2=O)nc1 |  |  | 18.4%

A few values from the entries so far.
`C=CCn1c(SCc2csc(-c3ccc(C)cc3)n2)nnc1-c1ccccc1OC` | cell number change: -16.7%
`O=C(COCc1cc(-c2ccc3c(c2)OCO3)on1)N1CCCCC1` | AC50 [2]: 6.51 µM [rising, single point]

(more compounds)

SMILES | AC50 [1] | AC50 [2] | cell number change
O=C(NCCCSc1ccccc1)c1cnc(Cl)c(Cl)c1 |  |  | 1.28%
Cc1csc(C(=O)NN)c1N(C)C | 6.51 µM [rising, partial curve, poor fit] |  | 40.9%
Cc1ccc(OCc2nnc(NC(=O)c3ccco3)s2)c(C)c1 |  | 0.651 µM [falling, single point] | -12.4%
Cc1c(CCC(=O)NC2CC2)c(=O)oc2cc(O)ccc12 |  | 0.92 µM [rising, single point] | -2.03%
CCOc1ccccc1N(CC(=O)Nc1cc(OC)ccc1OC)S(=O)(=O)c1ccccc1 |  |  | 26.7%
CC1(C)CC(NCCC(c2ccccc2)c2ccco2)CCO1 (configuration not stated) |  |  | 14%
COc1ccc(OC)c(-c2csc(NC(=O)COC(=O)C3CC3)n2)c1 |  | 29.1 µM [falling, single point] | 28.1%
CC1(C)CC(=O)C(CC(=O)Nc2cc(C(F)(F)F)ccc2Cl)C(=O)C1 |  | 4.61 µM [falling, single point] | -63.5%
COc1ccc(OCc2cc(C(=O)NC(C)c3csc(C)n3)no2)c(Cl)c1 (configuration not stated) |  | 6.51 µM [rising, single point] | -0.494%
COc1ccc(OCCCC(=O)Nc2nc(C)c(C(C)=O)s2)cc1 |  |  | 4.42%
CC(C)(C)NC(=O)CN1CCCN(C(=O)c2cccc(S(=O)(=O)N3CCc4ccccc43)c2)CC1 |  | 29.1 µM [falling, single point] | -10.2%
COc1ncccc1C(=O)NC1CCCc2c1cnn2-c1cc(C)cc(C)c1 (configuration not stated) | 0.0651 µM [falling, full curve, poor fit] | 29.1 µM [falling, partial curve, poor fit] | -16.1%
CCN(C1CCCCC1)S(=O)(=O)c1cn(C)c(=O)n(C)c1=O |  | 6.51 µM [falling, partial curve] | 
COc1ccc(Nc2cc(C(=O)NCCCN3CCOCC3)c3ccccc3n2)cc1OC |  | 1.46 µM [rising, partial curve] | 
CN(C)c1ccc(C(=O)c2ccccc2C(=O)O)cc1[N+](=O)[O-] |  | 29.1 µM [falling, single point] | -18.3%
O=C(c1ccccc1)n1c(=O)c(F)cn(COCCBr)c1=O |  | 13 µM [rising, partial curve] | -6.88%
COc1cccc(C2C(C#N)=C(N)N(N(C)C)C3=C2C(=O)CC(C)(C)C3)c1OC (configuration not stated) |  |  | 6.94%
CC1CCCCC1NC(=O)/C(C#N)=C/c1ccc(F)c(F)c1 (configuration not stated) |  | 0.206 µM [falling, full curve, poor fit] | -8.92%
Cc1cccc(Nc2ncnc3ccccc23)c1 | 2.91 µM [rising, partial curve] |  | 
Cc1ccc(NC(=O)Nc2ccc3c(c2)CCC3)c(C)c1 |  |  | 23.4%
NS(=O)(=O)c1cccc2cccnc12 |  |  | 15.2%
O=c1[nH]c(/C(Cl)=C/c2cccc(C(F)(F)F)c2)nc2cc(Cl)ccc12 | 3.26 µM [falling, single point] | 3.26 µM [falling, single point] | -17.8%

SMILES | AC50 [1] | AC50 [2] | cell number change
CCOC(=O)C1=C(CC)OC(N)=C(C#N)C1c1cccs1 (configuration not stated) | 0.116 µM [falling, full curve] |  | 1.61%
O=c1nc(N2CCCCC2)nc2n1CCO2 |  | 29.1 µM [falling, single point] | -23.1%
COc1cc(COc2ccc3c(C)c(Cc4ccccc4)c(=O)oc3c2)cc(OC)c1OC | 1.84 µM [rising, partial curve] |  | 
O=C(c1ccco1)N1CCN(C(=O)c2ccc(-c3ccccc3Cl)o2)CC1 | 18.4 µM [falling, partial curve, poor fit] |  | -34.2%
CCn1nnc(NC(=O)COc2ccc([N+](=O)[O-])cc2)n1 |  | 29.1 µM [rising, single point] | 18.6%
Cc1cccnc1Nc1nc(-c2ccccn2)cs1 |  | 4.11 µM [falling, single point] | -9.99%
CCN1CCn2c1nc(N1CCCCC1)nc2=O | 0.103 µM [falling, full curve, poor fit] |  | 
Nc1ccc(C(=O)NCC2(c3ccccc3)CCCC2)cc1 | 1.16 µM [rising, single point] | 0.116 µM [rising, full curve] | 19.2%
CCCCn1c(N)c(N(C(=O)CSc2nnnn2-c2ccccc2)C2CCCC2)c(=O)[nH]c1=O |  | 2.06 µM [rising, single point] | 5.18%
CCOC(=O)c1[nH]ncc1CN1CCCC(C(=O)c2cccc(OC(C)C)c2)C1 (configuration not stated) |  |  | 28.6%
CCN(CC)C(=S)NC(=O)c1ccc(F)cc1 |  | 6.51 µM [rising, single point] | 0.656%
CCn1c(=O)c(=O)[nH]c2cc(C(=O)NC3CCCC3)ccc21 |  | 3.66 µM [falling, partial curve] | -13.1%
O=C(Nc1cc(-c2nn(CC(=O)N3CCCCC3)c(=O)c3ccccc23)ccc1N1CCOCC1)c1ccc(Cl)cc1 | 1.03 µM [rising, full curve, poor fit] |  | 30.2%
C[C@H](NC(=O)[C@@H]1CCC(=O)N1Cc1ccco1)c1ccccc1 | 3.26 µM [falling, single point] |  | -15.3%
C=CCn1c(Cc2cccs2)nnc1SCC(=O)NCc1ccco1 |  | 0.116 µM [falling, full curve, poor fit] | 5.22%
O=C(N/N=C\c1cccc(Cl)c1)c1n[nH]c2c1CCCC2 |  | 29.1 µM [falling, single point] | -21.8%
O=C(Nc1cccc(S(=O)(=O)N2CCOCC2)c1)c1cc2c(s1)CCC2 | 0.092 µM [rising, full curve, poor fit] |  | 11.9%
CCOC(=O)N1CCC(N2CCN(Cc3ccccc3)C(CCO)C2)CC1 (configuration not stated) |  | 25.9 µM [falling, partial curve, poor fit] | -24.6%
COc1ccc(OCCCC(=O)Nc2cc(S(=O)(=O)N3CCCCC3)ccc2OC)cc1 |  | 0.00517 µM [falling, full curve, poor fit] | -8.46%
Cc1c(C)n(C)c2ccc(C(=O)NCCCN3CCN(c4ccccc4F)CC3)cc12 |  | 29.1 µM [rising, partial curve] | 33.1%

An excerpt from above in order of formula weight, ascending.
SMILES | AC50 [1] | AC50 [2] | cell number change
Cc1ccccc1NC(=O)CSc1nn2c(=O)c(C)nnc2s1 | 0.00461 µM [rising, full curve, poor fit] |  | 
COc1ccc(OCCCC(=O)Nc2nc(C)c(C(C)=O)s2)cc1 |  |  | 4.42%
Cc1ccc(C(=O)N/N=C/c2ccc(-c3ccc(Br)cc3[N+](=O)[O-])o2)o1 | 29.1 µM [falling, single point] |  | -33.4%
